Data on one sequence can be found in article PMC5492033, “The N-Terminal Region of the Ryanodine Receptor Affects Channel Activation” (Frontiers in Physiology, 2017).

A short description of this data set: Stability of the bilayer membrane after DPcpvtN2 addition.

Consider “HEESRTARVIRSTVFLFBRFIRGLDALSK [DPcpvtN2, domain peptide containing amino acids 410–438 of human RyR2, the central helix of the N-terminal region]”, for which the “Dependence of median time to bilayer rupture on presence of RyR” value (1–2 μM DPcpvtN2) is “did not depend on the presence of RyR in the membrane”. In addition, for the setting “concentrations higher than 2 μM”, the “Effect on bilayer membrane” value is “induced rupture of the bilayer membrane”.
